# Structures can show the parent of a compound that is named as a salt. Some entries share one result that the patent states for a list of compounds.
# Assay: Pharmacokinetic experiment, single intragastric dose in rats
# Type: in vivo, SD rats
# Conditions: single dose 10 mg/kg
# Experimental: 1) Preparation of animals 9 healthy male SD rats, each with a body weight of 220-230 g, were taken, fed with standard formulated granulated feed for rats at fixed times every day, and fasted for 12 hours before the experiment, and feeding was resumed after 4 hours of administration. Rats were free to drink water before, after and during the experiment. 9 rats were randomly divided into 3 groups.
# 2) Formulation of drugs: The fused ring pyrimidine compound as shown in formula 1, the crystal form A of the fumarate of fused ring pyrimidine compound as shown in formula 2 and the crystal form B of the adipate of fused ring pyrimidine compound as shown in formula 3 were accurately weighed, and were formulated into a 1 mg/mL solution in water (Wahaha/111830) with 0.5% MC (Fluka/BCBK3534K) and 0.5% Tween80 (TCl/V4FSC), respectively.
# 3) Intragastric administration with single dose (10 mg/kg): in the first group, rats were intragastrically administered with a solution of the fused ring pyrimidine compound as shown in formula 1, in the second group, rats were intragastrically administered with a solution of the crystal form A of the fumarate of fused ring pyrimidine compound as shown in formula 2, and in the third group, rats were intragastrically administered with a solution of the crystal form B of the adipate of fused ring pyrimidine compound as shown in formula 3. […]
row,Structure (SMILES),blood drug concentration relative to the compound of formula 1
1,COc1cc(F)ccc1-c1c(C)sc2cnc(Nc3cnn(C4CCNCC4)c3)nc12 [The crystal form B of the adipate of fused ring pyrimidine c],more than 17 times
2,COc1cc(F)ccc1-c1c(C)sc2cnc(Nc3cnn(C4CCNCC4)c3)nc12 [The crystal form A of the fumarate of fused ring pyrimidine ],more than 17 times

# Source: patent US11352368B2, “Salt of fused ring pyrimidine compound, crystal form thereof and preparation method therefor and use thereof” (GUANGZHOU MAXINOVEL PHARMACEUTICALS CO., LTD., priority 2018, dated 2022)
